In PMC11535055, “ER-phagy restrains inflammatory responses through its receptor UBAC2” (The EMBO Journal, 2024):
Results are given in words; binding and its absence hold for the method and conditions named. A result given as binding can be weak or reduced; the word gives no strength.

Amino acid sequences for entries named in this document (tags omitted). A change or cut given only in a name is not applied to a line headed by its entry.
UniProt Q8NBM4: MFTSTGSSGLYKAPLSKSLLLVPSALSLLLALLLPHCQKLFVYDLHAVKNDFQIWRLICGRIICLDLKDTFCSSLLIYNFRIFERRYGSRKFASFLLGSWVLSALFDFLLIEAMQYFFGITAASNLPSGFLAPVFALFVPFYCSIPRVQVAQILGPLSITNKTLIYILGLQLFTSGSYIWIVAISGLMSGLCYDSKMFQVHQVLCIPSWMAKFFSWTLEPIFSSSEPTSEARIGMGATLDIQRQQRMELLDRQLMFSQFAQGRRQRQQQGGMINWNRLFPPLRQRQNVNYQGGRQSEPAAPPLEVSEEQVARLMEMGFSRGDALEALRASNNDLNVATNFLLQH
UniProt Q7KZI7: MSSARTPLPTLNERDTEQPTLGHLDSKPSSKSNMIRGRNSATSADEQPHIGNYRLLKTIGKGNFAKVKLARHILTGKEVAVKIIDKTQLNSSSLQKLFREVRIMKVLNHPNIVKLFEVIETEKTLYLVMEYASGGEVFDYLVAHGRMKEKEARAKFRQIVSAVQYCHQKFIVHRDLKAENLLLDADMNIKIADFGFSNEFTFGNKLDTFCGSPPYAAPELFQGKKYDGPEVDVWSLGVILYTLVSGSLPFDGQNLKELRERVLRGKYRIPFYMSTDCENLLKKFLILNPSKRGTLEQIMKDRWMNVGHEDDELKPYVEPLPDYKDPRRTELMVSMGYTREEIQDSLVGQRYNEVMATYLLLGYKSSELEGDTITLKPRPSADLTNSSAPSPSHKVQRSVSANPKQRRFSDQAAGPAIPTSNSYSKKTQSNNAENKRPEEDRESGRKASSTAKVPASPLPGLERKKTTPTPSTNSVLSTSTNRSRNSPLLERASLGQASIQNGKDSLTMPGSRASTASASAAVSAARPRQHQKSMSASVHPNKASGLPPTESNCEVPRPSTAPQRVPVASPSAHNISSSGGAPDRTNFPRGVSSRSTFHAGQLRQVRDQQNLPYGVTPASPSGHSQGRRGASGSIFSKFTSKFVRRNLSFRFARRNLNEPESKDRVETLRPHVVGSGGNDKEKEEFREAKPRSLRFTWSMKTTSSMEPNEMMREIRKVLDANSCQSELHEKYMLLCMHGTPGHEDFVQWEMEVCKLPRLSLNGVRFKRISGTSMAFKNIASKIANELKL
UniProt O95166: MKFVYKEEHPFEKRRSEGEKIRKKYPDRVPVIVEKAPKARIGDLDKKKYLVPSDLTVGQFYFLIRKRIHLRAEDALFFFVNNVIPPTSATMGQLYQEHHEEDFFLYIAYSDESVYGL

Key:
[1] = biological target: His-GFP-UBAC2, wild type (human) (UniProt Q8NBM4); test: pull-down; His-GFP-UBAC2 purified from E. coli incubated with Flag-MARK2 (purified from 293T) in reaction buffer in vitro, then immunoprecipitated and immunoblotted; precipitating antibody not told; both purified
[2] = biological target: His-GFP-UBAC2, wild type (human) (UniProt Q8NBM4); test: pull-down; His-GFP-UBAC2 incubated with His-GABARAP (WT or mutants) in reaction buffer in vitro; pull-down with GFP-beads, immunoblot; both purified

binding [1]	binding [2]	Substance
binds		Flag-MARK2 (from UniProt Q7KZI7 1-788) (enzyme)
	binds	His-GABARAP, wild type (from UniProt O95166 1-117)
